# Screening data

Source: PubChem BioAssay AID912 (NCATS, 2007).

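Uptake of anthrax lethal toxin into cultured cells, read by FRET (460/530 nm ratio) and reported from the 460 nm channel; the cell line is not named here.
Each compound was tested as a concentration series from about 0.0005 to 40 µM.
The number is the fitted AC50 of the 460 nm signal alone; lower values mean a more potent effect. A falling signal goes with compounds filed as inhibitors or cytotoxic, a rising one with activators or fluorescent compounds (inferred from the filed classes).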

Values are in µM.
Common to all entries: measured here: 460 nm channel.
Part of the compounds only, not a random draw; the main read-out is not listed here.
Potencies fitted to partial, single-point or poorly fitting curves are rough.
The first word of each remark tells which way the curve ran; it can be opposite to the aim of the assay.

- FC(F)(F)c1cc(-c2cccs2)nc(N2CCOCC2)n1 : AC50 0.7943 µM (rising, full curve)
- CCOC(=O)NC1(C(F)(F)F)C(=O)N(Cc2ccccn2)C2=C1C(=O)CC(C)(C)C2 (stereo not given) : AC50 15.85 µM (falling, single point)
- COc1ccccc1N1CCN(C(=O)CSc2nc(-c3ccccc3)cc(=O)[nH]2)CC1 : AC50 7.943 µM (rising, partial curve)
- [O-][n+]1onc2c1CCc1c-2nn(-c2ccccc2Cl)[n+]1[O-] : AC50 10 µM (rising, partial curve)
- CN(C)c1ncc2nc(-c3ccccc3)c(=O)n(Cc3cccs3)c2n1 : AC50 10 µM (rising, partial curve)
- CC(=O)c1c(C)cc(C)c(CSc2nnc(-c3ccco3)o2)c1C : AC50 31.62 µM (falling, single point)
- c1ccc(-n2c(SCC3CCCCO3)nnc2-c2cnccn2)cc1 (stereo not given) : AC50 0.003981 µM (falling, full curve, poor fit)
- Cc1nn(Cc2ccccc2)c(C)c1NC(=O)CSc1nnc(-c2cc(Cl)ccc2O)n1C : AC50 5.012 µM (rising, single point)
- O=c1c(-c2ccc(F)cc2)nc2cncnc2n1Cc1ccc(F)cc1 : AC50 5.012 µM (falling, single point)
- CCC(C)(C)n1nnnc1C(c1ccc(OC)c(OC)c1)N1CCN(c2ccc(OC)cc2)CC1 (stereo not given) : AC50 3.981 µM (rising, partial curve)
- CC(C)CN1CCCC2(CCN(C(=O)c3cccc(F)c3)CC2)C1 : AC50 1.995 µM (rising, partial curve)
- Cc1nn(-c2ccccc2)c2nc(N)c(C#N)c(-c3ccc(F)cc3)c12 : AC50 12.59 µM (falling, partial curve, poor fit)
- CCCCN(Cc1cc2cc(OC)ccc2[nH]c1=O)C(=O)c1ccccn1 : AC50 0.02512 µM (falling, full curve, poor fit)
- c1ccc(N2CCN(c3ncnc4c3oc3ccccc34)CC2)cc1 : AC50 15.85 µM (falling, partial curve)
- O=C(Nc1ccc(Cl)cn1)c1cc2ccccc2o1 : AC50 0.02512 µM (falling, full curve)
- COc1ccn(C)c(=O)c1C#N : AC50 12.59 µM (falling, partial curve)
- O=c1c(-c2cccs2)nc2cnc(N3CCNCC3)nc2n1C1CC1 : AC50 2.512 µM (rising, full curve)
- N#Cc1nc(COc2cccc(Cl)c2)oc1N1CCN(c2ccccc2)CC1 : AC50 3.162 µM (falling, partial curve)
- COCCn1c(=O)c(-c2ccc(OC)cc2)nc2cnc(OCc3ccccc3)nc21 : AC50 19.95 µM (rising, partial curve)
- O=C(CSc1nc(-c2ccccc2)cs1)NC(=O)NCc1ccco1 : AC50 31.62 µM (falling, single point)
- C(=NC1CCCCC1)=NC1CCCCC1 : AC50 5.012 µM (falling, full curve)
- Cc1cc(=O)[nH]c(SCc2nc3ccccc3n2Cc2ccccc2)n1 : AC50 25.12 µM (rising, single point)
- O=S(=O)(c1ccccc1)N1CCC2(CCCN(C(c3ccccc3)c3ccccc3)C2)CC1 : AC50 7.943 µM (falling, partial curve)
- O=C(NCC1CCCCC1)C1CCN(C(=O)NC2CCCCC2)CC1 : AC50 0.01585 µM (rising, full curve, poor fit)
- COc1ccc2[nH]cc(CCNc3ncnc4ccc(-c5ccc6c(c5)OCO6)cc34)c2c1 : AC50 12.59 µM (falling, single point)

The last 2 entries again:

O=C(NCC1CCCCC1)C1CCN(C(=O)NC2CCCCC2)CC1 read AC50 0.01585 µM (rising, full curve, poor fit).
COc1ccc2[nH]cc(CCNc3ncnc4ccc(-c5ccc6c(c5)OCO6)cc34)c2c1 read AC50 12.59 µM (falling, single point).